Literature values in US20060105063A1, “Synergic combination of compositions containing aloe vera isolates and their therapeutic application” (priority 2004, published 2006).
Some results were stated once for a whole list of compounds, not compound by compound.

Columns and labels:
[1] = test system: human beings
[2] = test system: human subjects

| Substance | Amount required for bifidogenic/immunostimulating effect [1] | Consumption causing adverse gastrointestinal symptoms (gases and bloating) [2] |
| --- | --- | --- |
| Inulin | 2-4 grams per day | over 15 g per day |
| oligofructose | 2-4 grams per day | over 15 g per day |
